Experimental data as given in article PMC12139081.

By UniProt entry, the sequences of proteins in these tests, tags left out. Residues count along the entry.
UniProt P00367, residues 54-558: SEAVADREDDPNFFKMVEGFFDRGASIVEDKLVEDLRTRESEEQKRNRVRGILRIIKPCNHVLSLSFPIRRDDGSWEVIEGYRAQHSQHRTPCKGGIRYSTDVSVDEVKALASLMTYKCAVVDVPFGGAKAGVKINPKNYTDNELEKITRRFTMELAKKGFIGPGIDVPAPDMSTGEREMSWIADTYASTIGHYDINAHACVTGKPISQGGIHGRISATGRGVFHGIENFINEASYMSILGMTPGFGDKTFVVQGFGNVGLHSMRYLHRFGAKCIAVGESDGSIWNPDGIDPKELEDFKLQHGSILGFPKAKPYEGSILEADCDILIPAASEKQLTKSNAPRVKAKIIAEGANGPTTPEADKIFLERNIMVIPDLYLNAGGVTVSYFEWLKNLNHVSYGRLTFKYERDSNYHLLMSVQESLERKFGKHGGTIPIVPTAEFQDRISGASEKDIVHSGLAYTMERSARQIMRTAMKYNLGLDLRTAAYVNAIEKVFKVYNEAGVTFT

Biological target: T1, V5-tagged SCHAD (WT SCHAD-V5) (UniProt Q16836)
T1 sequence: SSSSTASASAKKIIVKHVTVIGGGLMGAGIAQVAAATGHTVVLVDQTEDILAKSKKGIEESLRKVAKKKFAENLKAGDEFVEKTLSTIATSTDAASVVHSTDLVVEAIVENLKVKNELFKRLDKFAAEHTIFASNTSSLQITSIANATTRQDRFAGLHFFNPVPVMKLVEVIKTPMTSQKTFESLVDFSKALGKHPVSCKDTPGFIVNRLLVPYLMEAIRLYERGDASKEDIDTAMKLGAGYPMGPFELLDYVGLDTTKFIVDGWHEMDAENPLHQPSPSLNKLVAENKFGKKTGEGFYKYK
Experiment: affinity purification with mass spectrometry; SCHADKO HEK293 cells transfected with WT SCHAD-V5 or Δ1–12 SCHAD-V5, crosslinked; immunoprecipitation with anti-V5, mouse IgG2a as negative control; LC-ESI-MS, two technical replicates

binding: binds
Molecule: endogenous glutamate dehydrogenase (GDH) of SCHADKO HEK293 cells (from UniProt P00367 54-558) (enzyme)

binding: binds
B1: endogenous keratin 18 (K18) of SCHADKO HEK293 cells (protein, UniProt P05783 1-430)
chain: MSFTTRSTFSTNYRSLGSVQAPSYGARPVSSAASVYAGAGGSGSRISVSRSTSFRGGMGSGGLATGIAGGLAGMGGIQNEKETMQSLNDRLASYLDRVRSLETENRRLESKIREHLEKKGPQVRDWSHYFKIIEDLRAQIFANTVDNARIVLQIDNARLAADDFRVKYETELAMRQSVENDIHGLRKVIDDTNITRLQLETEIEALKEELLFMKKNHEEEVKGLQAQIASSGLTVEVDAPKSQDLAKIMADIRAQYDELARKNREELDKYWSQQIEESTTVVTTQSAEVGAAETTLTELRRTVQSLEIDLDSMRNLKASLENSLREVEARYALQMEQLNGILLHLESELAQTRAEGQRQAQEYEALLNIKVKLEAEIATYRRLLEDGEDFNLGDALDSSNSMQTIQKTTTRRIVDGKVVSETNDTKVLRH

Results are given in words; binding and its absence hold for the method and conditions named. In cells and extracts the contact can be indirect. A yes stands for co-enrichment or nearness to the bait. Other partners may have been found. Tags and fused reporters may be left off the sequences shown. One block for each molecule: values may come before it.
